{
  "sequences": {"note": "Sequences of proteins named here, by UniProt entry; tags and fusion partners are left off. A change or cut given only in a name is not applied to a line headed by its entry.", "UniProt Q923Z3": "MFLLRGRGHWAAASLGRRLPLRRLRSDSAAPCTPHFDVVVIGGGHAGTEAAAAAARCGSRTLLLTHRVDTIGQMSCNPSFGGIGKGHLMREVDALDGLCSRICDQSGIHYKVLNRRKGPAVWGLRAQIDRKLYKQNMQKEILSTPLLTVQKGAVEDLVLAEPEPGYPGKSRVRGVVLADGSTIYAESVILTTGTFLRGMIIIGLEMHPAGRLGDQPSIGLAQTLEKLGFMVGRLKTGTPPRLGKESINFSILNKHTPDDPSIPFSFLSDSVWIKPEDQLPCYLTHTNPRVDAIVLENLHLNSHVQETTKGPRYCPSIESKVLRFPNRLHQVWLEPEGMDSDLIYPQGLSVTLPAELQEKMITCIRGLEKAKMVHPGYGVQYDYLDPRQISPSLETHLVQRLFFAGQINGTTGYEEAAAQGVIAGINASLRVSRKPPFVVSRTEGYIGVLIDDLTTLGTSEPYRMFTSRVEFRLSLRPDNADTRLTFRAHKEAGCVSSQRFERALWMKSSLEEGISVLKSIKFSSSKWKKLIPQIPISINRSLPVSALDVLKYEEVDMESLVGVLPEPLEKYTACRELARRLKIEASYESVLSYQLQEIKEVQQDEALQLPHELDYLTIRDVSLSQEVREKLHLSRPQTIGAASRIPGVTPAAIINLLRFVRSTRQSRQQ", "UniProt Q99L48": "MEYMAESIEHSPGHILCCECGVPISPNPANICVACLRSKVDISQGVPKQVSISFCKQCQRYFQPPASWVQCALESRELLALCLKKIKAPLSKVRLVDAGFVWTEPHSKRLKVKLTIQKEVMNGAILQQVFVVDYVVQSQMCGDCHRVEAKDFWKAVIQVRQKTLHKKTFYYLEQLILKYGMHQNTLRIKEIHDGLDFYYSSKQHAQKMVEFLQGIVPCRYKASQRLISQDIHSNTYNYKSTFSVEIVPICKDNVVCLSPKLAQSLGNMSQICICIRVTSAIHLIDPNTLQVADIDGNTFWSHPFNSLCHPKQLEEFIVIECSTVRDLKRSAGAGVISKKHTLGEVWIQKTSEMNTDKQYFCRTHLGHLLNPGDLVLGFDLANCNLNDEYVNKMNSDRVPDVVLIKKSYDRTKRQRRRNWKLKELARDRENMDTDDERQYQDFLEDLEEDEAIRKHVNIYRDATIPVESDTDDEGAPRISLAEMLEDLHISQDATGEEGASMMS", "UniProt Q99L04": "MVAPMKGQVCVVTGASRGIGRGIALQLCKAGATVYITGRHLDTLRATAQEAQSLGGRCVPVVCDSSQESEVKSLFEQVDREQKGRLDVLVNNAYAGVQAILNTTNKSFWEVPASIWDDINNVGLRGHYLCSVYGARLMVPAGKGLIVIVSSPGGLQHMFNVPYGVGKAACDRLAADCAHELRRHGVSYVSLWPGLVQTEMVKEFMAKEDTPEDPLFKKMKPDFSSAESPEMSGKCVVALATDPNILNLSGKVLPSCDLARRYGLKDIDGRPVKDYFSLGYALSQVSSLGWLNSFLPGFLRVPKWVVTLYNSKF", "UniProt Q99J31": "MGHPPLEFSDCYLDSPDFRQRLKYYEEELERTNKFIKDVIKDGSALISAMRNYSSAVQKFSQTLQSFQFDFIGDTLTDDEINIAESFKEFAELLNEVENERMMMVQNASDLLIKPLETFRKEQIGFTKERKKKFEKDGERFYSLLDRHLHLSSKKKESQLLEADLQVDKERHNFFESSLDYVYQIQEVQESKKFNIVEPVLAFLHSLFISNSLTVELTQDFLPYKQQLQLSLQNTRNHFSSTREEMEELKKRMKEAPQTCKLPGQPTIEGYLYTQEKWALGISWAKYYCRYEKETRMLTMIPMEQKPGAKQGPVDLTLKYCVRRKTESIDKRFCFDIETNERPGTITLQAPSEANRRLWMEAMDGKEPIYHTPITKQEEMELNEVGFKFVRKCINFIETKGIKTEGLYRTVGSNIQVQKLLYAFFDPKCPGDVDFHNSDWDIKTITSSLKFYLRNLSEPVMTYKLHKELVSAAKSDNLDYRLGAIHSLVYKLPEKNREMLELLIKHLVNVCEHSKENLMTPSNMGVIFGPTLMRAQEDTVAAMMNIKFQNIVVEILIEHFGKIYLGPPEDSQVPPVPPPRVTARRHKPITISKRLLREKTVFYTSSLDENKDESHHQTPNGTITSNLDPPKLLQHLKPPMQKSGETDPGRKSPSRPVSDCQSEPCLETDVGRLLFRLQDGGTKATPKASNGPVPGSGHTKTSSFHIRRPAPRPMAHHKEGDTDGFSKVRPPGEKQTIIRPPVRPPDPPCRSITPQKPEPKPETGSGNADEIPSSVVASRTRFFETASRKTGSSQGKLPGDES", "UniProt Q99KD5": "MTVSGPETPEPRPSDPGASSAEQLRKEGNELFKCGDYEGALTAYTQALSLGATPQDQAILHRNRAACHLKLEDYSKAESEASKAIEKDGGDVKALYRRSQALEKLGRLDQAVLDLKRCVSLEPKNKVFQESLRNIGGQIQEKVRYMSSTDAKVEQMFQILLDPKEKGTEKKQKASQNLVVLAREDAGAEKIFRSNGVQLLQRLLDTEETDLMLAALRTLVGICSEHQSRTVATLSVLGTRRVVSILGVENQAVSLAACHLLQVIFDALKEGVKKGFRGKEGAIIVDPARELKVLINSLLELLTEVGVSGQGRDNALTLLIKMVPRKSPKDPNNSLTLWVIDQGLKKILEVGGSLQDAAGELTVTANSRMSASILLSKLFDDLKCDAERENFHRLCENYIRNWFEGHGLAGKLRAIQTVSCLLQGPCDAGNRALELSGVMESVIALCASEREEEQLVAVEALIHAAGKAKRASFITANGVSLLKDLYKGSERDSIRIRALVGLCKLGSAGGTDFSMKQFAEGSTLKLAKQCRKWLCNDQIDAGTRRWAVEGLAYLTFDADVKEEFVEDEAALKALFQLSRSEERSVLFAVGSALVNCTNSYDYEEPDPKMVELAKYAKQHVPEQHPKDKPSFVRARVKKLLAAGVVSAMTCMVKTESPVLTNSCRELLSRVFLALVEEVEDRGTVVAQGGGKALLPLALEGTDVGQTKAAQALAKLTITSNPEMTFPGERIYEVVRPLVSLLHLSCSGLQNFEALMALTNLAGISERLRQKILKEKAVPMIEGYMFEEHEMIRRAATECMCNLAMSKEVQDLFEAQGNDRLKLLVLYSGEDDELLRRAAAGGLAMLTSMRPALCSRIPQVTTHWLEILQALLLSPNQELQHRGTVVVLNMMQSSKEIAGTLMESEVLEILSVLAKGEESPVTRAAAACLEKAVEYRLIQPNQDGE", "UniProt Q91ZV8": "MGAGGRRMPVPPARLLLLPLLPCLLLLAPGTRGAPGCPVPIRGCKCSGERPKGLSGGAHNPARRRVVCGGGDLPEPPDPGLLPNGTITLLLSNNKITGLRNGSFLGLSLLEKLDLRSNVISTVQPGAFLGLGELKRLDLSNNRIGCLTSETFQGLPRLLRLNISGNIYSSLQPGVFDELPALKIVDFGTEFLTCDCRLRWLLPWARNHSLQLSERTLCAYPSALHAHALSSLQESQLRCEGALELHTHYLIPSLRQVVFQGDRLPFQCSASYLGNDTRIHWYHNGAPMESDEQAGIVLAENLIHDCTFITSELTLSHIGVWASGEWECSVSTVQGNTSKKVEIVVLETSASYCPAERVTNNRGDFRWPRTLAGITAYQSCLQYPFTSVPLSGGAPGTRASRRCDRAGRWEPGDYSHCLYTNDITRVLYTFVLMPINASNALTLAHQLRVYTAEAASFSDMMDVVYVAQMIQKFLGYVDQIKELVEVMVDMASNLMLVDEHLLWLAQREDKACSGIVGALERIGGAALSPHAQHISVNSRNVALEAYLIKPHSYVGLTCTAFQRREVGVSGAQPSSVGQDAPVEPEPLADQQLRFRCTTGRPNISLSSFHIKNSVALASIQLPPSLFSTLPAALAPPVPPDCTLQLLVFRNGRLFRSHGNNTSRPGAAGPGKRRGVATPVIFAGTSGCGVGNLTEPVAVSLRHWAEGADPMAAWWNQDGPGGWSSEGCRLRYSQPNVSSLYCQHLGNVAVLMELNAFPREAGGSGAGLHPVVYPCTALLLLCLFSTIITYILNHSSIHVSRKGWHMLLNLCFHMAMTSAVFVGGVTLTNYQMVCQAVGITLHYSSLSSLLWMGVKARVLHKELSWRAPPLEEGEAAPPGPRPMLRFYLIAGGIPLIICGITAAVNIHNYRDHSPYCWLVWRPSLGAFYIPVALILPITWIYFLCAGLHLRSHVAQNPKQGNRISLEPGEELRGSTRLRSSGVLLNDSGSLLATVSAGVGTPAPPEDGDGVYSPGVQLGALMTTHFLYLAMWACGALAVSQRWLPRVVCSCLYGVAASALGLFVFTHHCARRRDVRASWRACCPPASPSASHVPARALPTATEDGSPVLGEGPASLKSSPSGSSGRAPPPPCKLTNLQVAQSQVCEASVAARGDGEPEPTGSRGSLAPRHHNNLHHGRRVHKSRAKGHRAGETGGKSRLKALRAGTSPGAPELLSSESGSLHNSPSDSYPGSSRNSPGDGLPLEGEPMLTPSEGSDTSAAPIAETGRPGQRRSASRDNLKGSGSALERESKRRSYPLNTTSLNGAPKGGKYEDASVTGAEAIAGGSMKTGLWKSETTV", "UniProt Q99JR8, whole entry": "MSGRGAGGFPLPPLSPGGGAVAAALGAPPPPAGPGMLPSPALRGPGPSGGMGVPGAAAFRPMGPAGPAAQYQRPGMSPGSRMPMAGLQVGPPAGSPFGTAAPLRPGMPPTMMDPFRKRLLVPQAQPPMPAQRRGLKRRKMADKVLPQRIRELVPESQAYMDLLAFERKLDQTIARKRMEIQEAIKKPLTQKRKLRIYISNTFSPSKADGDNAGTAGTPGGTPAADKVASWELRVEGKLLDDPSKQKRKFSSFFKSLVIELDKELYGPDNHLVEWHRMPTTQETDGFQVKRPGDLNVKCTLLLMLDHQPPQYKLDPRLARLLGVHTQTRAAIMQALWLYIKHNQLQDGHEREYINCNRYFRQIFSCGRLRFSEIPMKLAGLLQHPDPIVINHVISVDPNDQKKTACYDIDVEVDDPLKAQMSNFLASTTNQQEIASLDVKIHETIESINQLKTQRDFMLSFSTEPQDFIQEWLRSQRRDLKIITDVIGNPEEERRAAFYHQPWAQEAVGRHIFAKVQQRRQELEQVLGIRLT", "UniProt Q924Z6": "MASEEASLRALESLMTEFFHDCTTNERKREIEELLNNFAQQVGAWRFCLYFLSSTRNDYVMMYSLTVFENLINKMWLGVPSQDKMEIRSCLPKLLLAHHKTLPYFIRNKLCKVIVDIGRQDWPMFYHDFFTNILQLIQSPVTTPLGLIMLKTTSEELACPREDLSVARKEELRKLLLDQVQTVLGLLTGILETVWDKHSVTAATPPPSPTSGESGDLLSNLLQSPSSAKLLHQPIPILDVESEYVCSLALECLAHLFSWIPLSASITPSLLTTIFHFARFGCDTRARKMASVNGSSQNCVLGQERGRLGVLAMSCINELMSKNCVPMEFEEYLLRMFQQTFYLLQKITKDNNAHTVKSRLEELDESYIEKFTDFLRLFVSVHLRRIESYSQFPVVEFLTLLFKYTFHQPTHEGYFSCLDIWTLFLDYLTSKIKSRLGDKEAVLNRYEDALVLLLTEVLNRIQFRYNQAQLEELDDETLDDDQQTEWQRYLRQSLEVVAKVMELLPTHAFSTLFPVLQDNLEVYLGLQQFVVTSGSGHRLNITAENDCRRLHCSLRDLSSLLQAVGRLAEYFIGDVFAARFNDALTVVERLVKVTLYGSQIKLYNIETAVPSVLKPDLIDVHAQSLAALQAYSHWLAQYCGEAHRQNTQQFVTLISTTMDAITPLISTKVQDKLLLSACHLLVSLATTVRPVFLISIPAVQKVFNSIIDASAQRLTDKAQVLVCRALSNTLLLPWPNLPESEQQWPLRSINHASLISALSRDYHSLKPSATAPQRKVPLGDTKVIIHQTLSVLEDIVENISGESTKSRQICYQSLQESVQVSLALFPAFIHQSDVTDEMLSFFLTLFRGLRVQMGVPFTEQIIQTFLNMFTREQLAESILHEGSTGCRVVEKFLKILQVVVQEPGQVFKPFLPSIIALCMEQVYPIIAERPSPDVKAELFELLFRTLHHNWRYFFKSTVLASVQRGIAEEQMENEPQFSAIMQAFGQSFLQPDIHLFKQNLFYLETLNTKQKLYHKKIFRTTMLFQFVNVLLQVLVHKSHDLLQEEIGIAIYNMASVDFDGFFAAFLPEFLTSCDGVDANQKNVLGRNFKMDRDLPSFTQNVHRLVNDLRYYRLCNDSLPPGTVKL", "UniProt Q922Z0": "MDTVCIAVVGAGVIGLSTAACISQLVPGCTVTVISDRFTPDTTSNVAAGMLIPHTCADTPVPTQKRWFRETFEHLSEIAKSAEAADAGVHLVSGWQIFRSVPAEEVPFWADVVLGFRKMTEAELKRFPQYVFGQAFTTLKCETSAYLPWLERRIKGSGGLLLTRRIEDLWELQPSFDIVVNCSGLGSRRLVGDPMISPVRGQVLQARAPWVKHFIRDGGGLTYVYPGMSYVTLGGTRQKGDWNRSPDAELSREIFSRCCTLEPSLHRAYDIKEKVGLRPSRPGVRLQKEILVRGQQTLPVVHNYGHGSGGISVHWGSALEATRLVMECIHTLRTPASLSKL"},
  "source": "the supplement of paper PMC12819154",
  "about": "“High-throughput peptide-centric local stability assay extends protein–ligand identification to membrane proteins, tissues and bacteria” (Nature Structural & Molecular Biology, 2025)",
  "note": "The other results are listed elsewhere or left out. Most entries show no effect beyond the scatter of the controls.",
  "data": [
    {"compound": "CN[C@@H]1C[C@H]2O[C@@](C)([C@@H]1OC)n1c3ccccc3c3c4c(c5c6ccccc6n2c5c31)C(=O)NC4 [staurosporine]", "test": "log2 fold change of tryptic peptide abundance, ligand vs vehicle (limited proteolysis) (log2 ratio); higher = more trypsin-susceptible (destabilized)", "conditions": "ligand concentration: 20 uM; sample: mouse liver crude lysate; replicate design: treated separately", "values": [
      {"target": "UniProt Q920D3 (peptide sequence: HWQQVLEDINVQHK, peptide start residue: 138)", "log2 fold change": -0.51},
      {"target": "UniProt Q923Z3 (peptide sequence: EAGCVSSQR, peptide start residue: 491)", "log2 fold change": 0.255},
      {"target": "UniProt Q921H8 (peptide sequence: AEIVPVTTTVLDDKGDK, peptide start residue: 221)", "log2 fold change": -0.106},
      {"target": "UniProt Q923T7 (peptide sequence: LYCQDDGR, peptide start residue: 138)", "log2 fold change": 0.238},
      {"target": "UniProt Q921C5 (peptide sequence: YHVAVAEAGELR, peptide start residue: 441)", "log2 fold change": 0.981},
      {"target": "UniProt Q924Z5 (peptide sequence: REPGYHENGVVK, peptide start residue: 344)", "log2 fold change": 0.117},
      {"target": "UniProt Q99L47 (peptide sequence: LAILYAKR, peptide start residue: 146)", "log2 fold change": 0.394},
      {"target": "UniProt Q99L48 (peptide sequence: QVSISFCK, peptide start residue: 49)", "log2 fold change": -0.177},
      {"target": "UniProt Q99KN2 (peptide sequence: CICTLSGFHTR, peptide start residue: 243)", "log2 fold change": 0.106},
      {"target": "UniProt Q99L04 (peptide sequence: GQVCVVTGASR, peptide start residue: 7)", "log2 fold change": -0.709},
      {"target": "UniProt Q99J31 (peptide sequence: QGPVDLTLK, peptide start residue: 311)", "log2 fold change": 0.0782},
      {"target": "UniProt Q99JY4 (peptide sequence: VSAHITEQLGMAPGGEFR, peptide start residue: 154)", "log2 fold change": -0.19},
      {"target": "UniProt Q99KX1 (peptide sequence: QQRPLEFR, peptide start residue: 204)", "log2 fold change": 0.189},
      {"target": "UniProt Q99K95 (peptide sequence: CCGCVFSER, peptide start residue: 139)", "log2 fold change": 0.215},
      {"target": "UniProt Q99KD5 (peptide sequence: AVPMIEGYMFEEHEMIRR, peptide start residue: 776)", "log2 fold change": -0.571},
      {"target": "UniProt Q99020 (peptide sequence: IFVGGLNPEATEEKIR, peptide start residue: 161)", "log2 fold change": -0.108},
      {"target": "UniProt Q922B6 (peptide sequence: LSEDLMEFRR, peptide start residue: 271)", "log2 fold change": 0.642},
      {"target": "UniProt Q91ZV8 (peptide sequence: GDGEPEPTGSR, peptide start residue: 1151)", "log2 fold change": -0.475},
      {"target": "UniProt Q99LC9 (peptide sequence: IPSVSWHDVGGLQDVK, peptide start residue: 700)", "log2 fold change": -0.185},
      {"target": "UniProt Q921G8 (peptide sequence: YITAQPLAGR, peptide start residue: 232)", "log2 fold change": 0.161},
      {"target": "UniProt Q99JR5 (peptide sequence: EQNEASPTPR, peptide start residue: 298)", "log2 fold change": -0.15},
      {"target": "UniProt Q920B0 (peptide sequence: SSINEQFMDTR, peptide start residue: 628)", "log2 fold change": -0.38},
      {"target": "UniProt Q924T7 (peptide sequence: LREEVPLGQSIAR, peptide start residue: 1051)", "log2 fold change": -0.473},
      {"target": "UniProt Q99J27 (peptide sequence: DSVGGEGDREVLLGDAGPGDLPKAPR, peptide start residue: 41)", "log2 fold change": -0.372},
      {"target": "UniProt Q922D8 (peptide sequence: VLLSALDR, peptide start residue: 355)", "log2 fold change": 0.205},
      {"target": "UniProt Q924C1 (peptide sequence: FFGILYENCYHILGK, peptide start residue: 839)", "log2 fold change": -0.324},
      {"target": "UniProt Q99JI1 (peptide sequence: NRTGTETVFEKPK, peptide start residue: 61)", "log2 fold change": 0.119},
      {"target": "UniProt Q924T3 (peptide sequence: MAPQELPLQEKER, peptide start residue: 280)", "log2 fold change": -0.441},
      {"target": "UniProt Q922P9 (peptide sequence: FFGTEDHAWIK, peptide start residue: 46)", "log2 fold change": 0.113},
      {"target": "UniProt Q99L20 (peptide sequence: IFESRPK, peptide start residue: 184)", "log2 fold change": -0.279},
      {"target": "UniProt Q99JR8 (peptide sequence: MADKVLPQR, peptide start residue: 140)", "log2 fold change": -0.285},
      {"target": "UniProt Q921W0 (peptide sequence: MDDTLFQLK, peptide start residue: 1)", "log2 fold change": -0.368},
      {"target": "UniProt Q925F2 (peptide sequence: NGTLSSVTSAR, peptide start residue: 310)", "log2 fold change": -0.147},
      {"target": "UniProt Q924Z6 (peptide sequence: DYHSLKPSATAPQR, peptide start residue: 761)", "log2 fold change": -0.767},
      {"target": "UniProt Q922Z0 (peptide sequence: SPDAELSR, peptide start residue: 245)", "log2 fold change": 0.247},
      {"target": "UniProt Q924D0 (peptide sequence: HLWQGVHYR, peptide start residue: 331)", "log2 fold change": 0.286},
      {"target": "UniProt Q923B0 (peptide sequence: VMLDHSHGLAAFR, peptide start residue: 19)", "log2 fold change": -0.128},
      {"target": "UniProt Q99LG2 (peptide sequence: AHYQSFPPPVADFIK, peptide start residue: 76)", "log2 fold change": 0.26},
      {"target": "UniProt Q99LB6 (peptide sequence: VLITGATGLLGR, peptide start residue: 31)", "log2 fold change": -0.283},
      {"target": "UniProt Q925N0 (peptide sequence: TLFVTEKR, peptide start residue: 54)", "log2 fold change": -0.179}
    ]}
  ]
}
